Two molecules from paper PMC7170535 can be followed below.

Where a chain is given by its changes, count along the chain named. Names may count otherwise. These are yes or no findings as the source states them, for the method shown.

For assay [1], the target named is recombinant inter-α-inhibitor heavy chain 1 (rHC1), wild type (human) (UniProt P19827). The assay can be described thus: SAXS; rHC1 proteins at 1.25, 2.5 and 5.0 mg/ml in HEPES-buffered saline pH 7.5 with 5 mM CaCl2; both purified.
The target is the same in assay [2]. Kind of assay: AUC; equilibrium AUC; rHC1 at 4, 11 and 22 μM at 0 mM MgCl2 (2.5 mM EDTA); 20 °C; both purified.
Assay [3] shares this target. The assay can be described thus: SAXS; WT rHC1 at 1.25, 2.5 and 5.0 mg/ml in HEPES-buffered saline pH 7.5 with 2.5 mM EDTA; both purified.
The target is the same in assay [4]. The assay can be described thus: AUC; velocity AUC; 18 μM WT rHC1 in HEPES-buffered saline pH 7.5 with 2.5 mM EDTA; 20 °C, 40,000 rpm; both purified.
In assay [5] the target is recombinant inter-α-inhibitor heavy chain 1 (rHC1), D298A MIDAS mutant (human) (UniProt P19827). The assay can be described thus: SAXS; rHC1 proteins at 1.25, 2.5 and 5.0 mg/ml in HEPES-buffered saline pH 7.5 with 5 mM MgCl2; both purified.
Assay [6] has the same target. The assay can be described thus: SAXS; rHC1 proteins at 1.25, 2.5 and 5.0 mg/ml in HEPES-buffered saline pH 7.5 with 5 mM MnCl2; both purified.

B1: recombinant inter-α-inhibitor heavy chain 1 (rHC1), wild type (protein, UniProt P19827 35-672)
chain: SKSSEKRQAVDTAVDGVFIRSLKVNCKVTSRFAHYVVTSQVVNTANEAREVAFDLEIPKTAFISDFAVTADGNAFIGDIKDKVTAWKQYRKAAISGENAGLVRASGRTMEQFTIHLTVNPQSKVTFQLTYEEVLKRNHMQYEIVIKVKPKQLVHHFEIDVDIFEPQGISKLDAQASFLPKELAAQTIKKSFSGKKGHVLFRPTVSQQQSCPTCSTSLLNGHFKVTYDVSRDKICDLLVANNHFAHFFAPQNLTNMNKNVVFVIDISGSMRGQKVKQTKEALLKILGDMQPGDYFDLVLFGTRVQSWKGSLVQASEANLQAAQDFVRGFSLDEATNLNGGLLRGIEILNQVQESLPELSNHASILIMLTDGDPTEGVTDRSQILKNVRNAIRGRFPLYNLGFGHNVDFNFLEVMSMENNGRAQRIYEDHDATQQLQGFYSQVAKPLLVDVDLQYPQDAVLALTQNHHKQYYEGSEIVVAGRIADNKQSSFKADVQAHGEGQEFSITCLVDEEEMKKLLRERGHMLENHVERLWAYLTIQELLAKRMKVDREERANLSSQALQMSLDYGFVTPLTSMSIRGMADQDGLKPTIDKPSEDSPPLEMLGPRRTFVLSALQPSPTHSSSNTQRLPDRVTGVDTD
On to B1, for which the binding result in assay [1] is “no binding (condition: in 5 mM CaCl2)”; in assay [2] it was “no binding (condition: at 0 mM MgCl2 (2.5 mM EDTA))”; in assay [3], “no binding (condition: with 2.5 mM EDTA)”; in assay [4], “no binding (condition: with 2.5 mM EDTA)”.

B2: recombinant inter-α-inhibitor heavy chain 1 (rHC1), D298A MIDAS mutant (protein, UniProt P19827 35-672)
chain: B1 chain with D264A
Consider B2, for which the binding result in assay [5] and in assay [6] was “no binding” each time.
